Library screening results

Data taken from ChEMBL document CHEMBL3988442, “University of Dundee, Small-Polar-MMV Screening Library” (2021).

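Whole-cell assay for inhibitors of Mycobacterium tuberculosis growth, labelled Cornell in the record; the read-out is not stated. The concentration is filed as 10 mM, unlikely as a test dose, so the dose is not known. The record gives no direction; compounds strong in two other growth screens of this library score well above the rest, so higher reads as stronger inhibition. Size under these conditions: about 53,000 compounds, about 900 of them at 50% or above in at least one test.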

The filed quantity is “Percent Effect” (%). The controls that fix the scale are not given in the record; negative values are as filed. This is an unselected part of the compounds tested.

compound | effect
Cc1nc(-c2nnc[nH]2)sc1C(=O)N1CCCC(C(F)(F)F)C1 (stereo not shown) | -44.79
Cc1noc(C)c1C(C)NC(=O)N1CCN(c2cccs2)CC1 (stereo not shown) | 32.97
O=C1CC(c2cccs2)Cc2[nH]c(=O)c(C(=O)NC3CCCC3)cc21 (stereo not shown) | -3.413
CCCC(=O)Nc1ccc(CC(=O)N(C)CCc2cn[nH]c2)cc1 | 23.92
Cc1noc(C)c1C(=O)N1CCCC1c1c(C)nn(C)c1Cl (stereo not shown) | 15.11
NC(=O)c1cc2c(nc1Oc1ccc(CN3CCCC3)cc1F)CCC2 | 0.4934
Cc1cnc(-c2nc(O)c3c(n2)CN(C(=O)C2CCCO2)CC3)cn1 (stereo not shown) | 2.974
CCN(Cc1ccoc1)C(=O)NC1CCN(CC2CC2)C1 (stereo not shown) | 6.854
CN(CCN1CCCCCC1)C(=O)c1cc(CN2CCC(O)CC2)on1 | -31.82
O=C(O)C(F)(F)F.[H][C@]12CN(Cc3nccs3)C[C@@]1([H])OCCN(C(=O)c1ccsc1)C2 | 8.408
NC(=O)c1ccc(-n2ccnc2-c2cccc(O)c2)cc1N1CCCC1 | 19.92
[H][C@]12CN(c3ncccn3)C[C@@]1([H])S(=O)(=O)CC[C@@H]2C(=O)N(C)C | -3.137
CCCOc1ccc(C(=O)N2CCN3CCNC(=O)C3C2)cc1Cl (stereo not shown) | 22.02
Cc1noc(CN2CCN(C(=O)c3ccccn3)CC2)n1 | -25.38
Cc1cc(O)nc(C2CN(CCO)CCO2)n1 (stereo not shown) | -14.9
CN1CC[C@H](N(Cc2ccccc2)C2COC2)C[C@H](O)C1 | -1.666
CNC(=O)CN1CCC2(CC1)C[C@@H](O)[C@H](c1ccccc1)NC2=O | -17.55
Cc1ccc(CNCC2CCCn3ccnc32)s1 (stereo not shown) | 3.384
CC(C)c1nc2n(n1)CC(Nc1ncnc3c1CCC3)CC2 (stereo not shown) | 10.51
Cn1cc(CN2CCCCC2c2ccc(-c3cccc(Cl)c3)nc2)cn1 (stereo not shown) | 30.06
Cn1cncc1CNC1CC2(CCN(S(C)(=O)=O)CC2)c2ccccc21.O=C(O)C(F)(F)F (stereo not shown) | 16.54
[H][C@]12CC[C@]([H])(CN(C(=O)CSc3ccncc3)C1)N(CC=C(C)C)C2 | 23.37
CCn1cc(CNC2CC(=O)N(CCc3cccc(Cl)c3)C2)cn1 (stereo not shown) | 28.12
O=c1[nH]nc(SCC2CCCO2)n1C1CC1 (stereo not shown) | -17.93
O=C(CCNC(=O)c1cnccn1)Nc1ncc[nH]1 | 10.37
Cn1ccnc1CN1CCCN(C(=O)CC(C2CC2)C2CC2)CC1 | -28.3
CC(Oc1ccc(C(=O)NCCNS(C)(=O)=O)cn1)c1ccccc1 (stereo not shown) | -2.828
CC(NC(=O)c1ccc(C#N)cn1)C1(N2CCOCC2)CCCC1 (stereo not shown) | 22.68
Cc1cc(COC(=O)[C@@H]2Cc3ccccc3CN2S(C)(=O)=O)no1 | -10.13
O=C(CN1CCCC1c1nc(-c2ccccn2)no1)N1CCOCC1 (stereo not shown) | -21.33
COC(=O)N1CCCCC1C(=O)N(C)Cc1cc(-c2cccnc2)no1 (stereo not shown) | 4.594
O=C(O)C(F)(F)F.[H][C@]12CCC[C@@]1(COc1ccccn1)CN(C(=O)C1CCOCC1)C2 | 2.348
COc1ccccc1CCN(C)Cc1nc(N)nc(N(C)C)n1 | 1.15
Cc1nc(-c2ccc(Cl)s2)sc1C(=O)NCCS(N)(=O)=O | 41.44
Cc1nc(Nc2cnccn2)cc(C2CCCN2C2CCOCC2)n1 (stereo not shown) | -8.057
CCC(C)NC(=O)CN1CCC2(CC1)OCCO2 (stereo not shown) | 20.7
COc1ccc2c(c1)[C@@H](CCNC(C)=O)CC(C)(C)O2 | -1.112
COCCNC(=O)NCCS(=O)(=O)N1CCN(c2cccc(C)c2)CC1 | 19.69
Cc1cnn(CC2CCCCN2C(=O)c2sccc2C#N)c1 (stereo not shown) | 3.27
CN(C)CC1CSCCCN1C(=O)Nc1ccc(C(C)(C)C)cc1 (stereo not shown) | 18.98
COc1c(CNCCc2c[nH]c3ccccc23)c(C(C)C)nn1C | 20.96
CC1=Nc2c(c(=O)[nH]n2C(C)C)C(c2ccc3nccnc3c2)S1 (stereo not shown) | 21.43
CC(C)c1nc(CN(C)C(=O)Cn2nc3ccccc3n2)no1 | -5.735
CN1[C@@H](c2ccccc2)[C@@H](C(=O)NCc2ccncc2)C[C@@]1(C)C(=O)O | 16.54
CCC(CO)N(Cc1ccccn1)C(=O)c1ncccc1C (stereo not shown) | -2.388
CN(Cc1nnc(C2CC2)n1C)S(=O)(=O)c1ccccc1F | 13.16
O=C(O)C(F)(F)F.[H][C@]12CCCC(OCc3cccnc3)[C@@]1([H])CN(C(=O)c1ccoc1C)C2 (stereo partly shown) | 17.17
COc1cc(C)nc(N2CCN(C(=O)CCc3ccsc3)CC2)n1 | 5.9
N#Cc1ccccc1N1CCCN(C(=O)CCn2cccn2)CC1 | -3.274
Cc1cnc(CCNC(Cc2ccncc2)C(F)(F)F)s1 (stereo not shown) | 1.598
CN(C)c1cc(C(=O)N2CCCC(n3cccn3)C2)ccn1 (stereo not shown) | 14.11
COc1cccc(-c2noc(CN3CCOCC3C)n2)c1 (stereo not shown) | 40.62
CC(C)(C)c1n[nH]c(C2CN(CCc3ccncc3)CCO2)n1 (stereo not shown) | 3.901
O=C(O)C1(Oc2ccc3ccccc3c2)CCN(c2ccncc2)CC1 | -7.567
Cc1ccc(C(C)NCc2cn(CCC(N)=O)c3ccccc23)cc1C (stereo not shown) | 12.37
Cc1ccc2cc(CN(C)Cc3ncc[nH]3)c(=O)[nH]c2c1 | -26
Cn1cccc1C(=O)N1CCC2(CC1)COC(COc1ccccn1)C2.O=C(O)C(F)(F)F (stereo not shown) | 9.973
COC(CNC(=O)NCc1c(C)cc(C)[nH]c1=O)c1ccccc1 (stereo not shown) | -43.18
[H][C@]12CC[C@]([H])(CN(C(=O)c3c[nH]c(=O)c(Cl)c3)C1)N(CC1CCC1)C2 | -6.123
CC(c1ccon1)N(C)C(=O)C1CCN(C2CCCCC2)CC1 (stereo not shown) | -0.07583
COc1ccc2c(c1)OCC(CNC(=O)c1cnc(NC(C)C)nc1)C2 (stereo not shown) | -34.19

For reference, 4 entries once more:

| compound | effect |
|---|---|
| `Cn1cccc1C(=O)N1CCC2(CC1)COC(COc1ccccn1)C2.O=C(O)C(F)(F)F` (stereo not shown) | 9.973 |
| `COc1ccccc1CCN(C)Cc1nc(N)nc(N(C)C)n1` | 1.15 |
| `COC(=O)N1CCCCC1C(=O)N(C)Cc1cc(-c2cccnc2)no1` (stereo not shown) | 4.594 |
| `Cn1ccnc1CN1CCCN(C(=O)CC(C2CC2)C2CC2)CC1` | -28.3 |